Results as given in PubChem BioAssay AID248 (DTP/NCI, 2004).
The list does not hold the whole screen: it gathers tests that were run many times, whatever their T/C, doses with no T/C, and many T/C values between a quarter and a half above the control. Further doses and runs are listed elsewhere. T/C is the treated group as % of the vehicle group. Some doses have a count of surviving animals in place of a T/C: the source files T/C as zero there, which appears to mark a toxic dose or a test without result, not a measured value. Some doses without a T/C left all or most animals alive at the check, yet need not have been tolerated: survival well below the control is almost never listed, so the zero probably covers shortened survival too. Counts of survivors are from the toxicity check (mostly the fifth day) where no day follows; animals may have died later. Schedules are NCI's codes, taken here to give the interval after Q, in days (D) or hours (H), and the number of doses after X. Some schedules carry Z or #; the key to these is not given. Some structures stand for samples that the source files as different forms (salt, stereo form or complex); doses refer to the form tested. Counts like (3×) stand for listed records that agree. Some entries were tested several times; the values are given in rising order. For survival time, the PubChem record calls one and a half times the control and up active, and a quarter to a half above the control has no call in these data; cut-offs in other NCI protocols can differ.

Test system: L1210 leukemia ip in BDF1 mice, survival T/C
Test: NCI In Vivo Anticancer Drug Screen. Data for tumor model L1210 Leukemia (intraperitoneal) in B6D2F1 (BDF1) mice
Conditions: T/C endpoint: mean survival time, higher T/C = longer survival
[1] = dose: 100.0 mg/kg/injection, schedule: Q01DX009 (ip), vehicle: saline
[2] = dose: 200.0 mg/kg/injection, schedule: Q01DX009 (ip), vehicle: saline
[3] = dose: 400.0 mg/kg/injection, schedule: Q01DX009 (ip), vehicle: saline
[4] = dose: 400.0 mg/kg/injection, schedule: Q04DX003 (ip), vehicle: saline
[5] = dose: 200.0 mg/kg/injection, schedule: Q04DX003 (ip), vehicle: saline
[6] = dose: 100.0 mg/kg/injection, schedule: Q01DX009 (ip), vehicle: saline with Tween-80
[7] = dose: 200.0 mg/kg/injection, schedule: Q04DX003 (ip), vehicle: saline with Tween-80
[8] = dose: 400.0 mg/kg/injection, schedule: Q04DX003 (ip), vehicle: saline with Tween-80
[9] = dose: 200.0 mg/kg/injection, schedule: Q01DX009 (ip), vehicle: saline with Tween-80
[10] = dose: 200.0 mg/kg/injection, schedule: Q01DX009 (ip), vehicle: Klucel (hydroxypropylcellulose) (HPC)
[11] = dose: 400.0 mg/kg/injection, schedule: Q01DX009 (ip), vehicle: Klucel (hydroxypropylcellulose) (HPC)
[12] = dose: 50.0 mg/kg/injection, schedule: Q04DX003 (ip), vehicle: saline with Tween-80
[13] = dose: 100.0 mg/kg/injection, schedule: Q04DX003 (ip), vehicle: saline with Tween-80
[14] = dose: 100.0 mg/kg/injection, schedule: Q04DX003 (ip), vehicle: saline

In the case of Cc1ccc(Nc2nc(N)nc(N)c2N)cc1Cl, the survivor count (dose: 200.0 mg/kg/injection, schedule: Q01DX Z (ip), vehicle: saline) is reported as 0 of 6.
For NNC(=O)OCCO, the survivor count (dose: 12.5 mg/kg/injection, schedule: Q01DX009 (ip), vehicle: saline) was 0 of 6, the survivor count [1] was 6 of 6 and the survivor count [2] was 1 of 6. The survivor count [3] was 0 of 6.
For CC(=O)Nc1ncnn1C(C)=O, the survivor count [4] was 3 of 6.
CC1CN(c2ccc([N+](=O)[O-])cc2)C(C)CN1 (stereo not drawn) was tested, and the survivor count [2] was 1 of 6 and the survivor count [4] was 6 of 6.
With O=C1C(Br)=C(Br)C(=O)c2ccccc21 the survivor count (dose: 200.0 mg/kg/injection, schedule: Q01DX001 (ip), vehicle: saline) was 0 of 4 and the survivor count (dose: 400.0 mg/kg/injection, schedule: Q01DX001 (ip), vehicle: saline) was 0 of 4.
In the case of CCN(CC)CCOC(=O)Nc1ccccc1, the survivor count [5] is reported as 0 of 6.
With NNC(=S)Nc1cccc2ccccc12 the survivor count (dose: 300.0 mg/kg/injection, schedule: Q01DX001 (ip), vehicle: carboxymethylcellulose (CMC)) was 3 of 6.
For N#Cc1ccc(NC(=O)COc2cccc(Cl)c2)cc1, the survivor count (dose: 75.0 mg/kg/injection, schedule: Q01DX001 (ip), vehicle: saline with Tween-80) was 6 of 6.
S=C(N/N=C/c1ccccn1)N/N=C/c1ccccn1 was tested, and the T/C (dose: 25.0 mg/kg/injection, schedule: Q01DX009 (ip), vehicle: saline with Tween-80) was 125 % of control, the T/C (dose: 50.0 mg/kg/injection, schedule: Q01DX009 (ip), vehicle: saline with Tween-80) was 137 % of control and the survivor count (dose: 75.0 mg/kg/injection, schedule: Q01DX009 (ip), vehicle: saline with Tween-80) was 3 of 6. The survivor count [6] was 3 of 6, the survivor count [7] was 1 of 6 and the survivor count [8] was 0 of 6.
O=C(NCCCCN1CC1)C(=O)Nc1cccnc1 was tested, and the survivor count (dose: 100.0 mg/kg/injection, schedule: Q04DX003 (ip), vehicle: Klucel (hydroxypropylcellulose) (HPC)) was 1 of 6, the survivor count (dose: 200.0 mg/kg/injection, schedule: Q04DX003 (ip), vehicle: Klucel (hydroxypropylcellulose) (HPC)) was 0 of 6 and the survivor count (dose: 400.0 mg/kg/injection, schedule: Q04DX003 (ip), vehicle: Klucel (hydroxypropylcellulose) (HPC)) was 0 of 6.
In the case of CCCC(C(=O)O)C1=CCCC1 (stereo not drawn), the survivor count [9] is reported as 2 of 6 and the survivor count (dose: 400.0 mg/kg/injection, schedule: Q01DX009 (ip), vehicle: saline with Tween-80) is reported as 2 of 6.
In the case of Nc1c2ccccc2cc2cccc[n+]12, the survivor count (dose: 37.5 mg/kg/injection, schedule: Q01DX001 (ip), vehicle: other) is reported as 0 of 6 and 1 of 6, the survivor count (dose: 75.0 mg/kg/injection, schedule: Q01DX001 (ip), vehicle: other) is reported as 0 of 6 (2×) and the survivor count (dose: 150.0 mg/kg/injection, schedule: Q01DX001 (ip), vehicle: other) is reported as 0 of 6 and 1 of 6. For the same molecule, the survivor count (dose: 300.0 mg/kg/injection, schedule: Q01DX001 (ip), vehicle: other) was 0 of 6 and 1 of 6.
In the case of O=S1(=O)CC2=C1/C=C/CCCC2, the survivor count (dose: 20.0 mg/kg/injection, schedule: Q01DX001 (ip), vehicle: saline) is reported as 3 of 6, the survivor count (dose: 20.0 mg/kg/injection, schedule: Q04DX002 (ip), vehicle: Klucel (hydroxypropylcellulose) (HPC)) is reported as 3 of 3 and the survivor count (dose: 40.0 mg/kg/injection, schedule: Q01DX001 (ip), vehicle: saline) is reported as 1 of 6. For the same molecule, the survivor count (dose: 75.0 mg/kg/injection, schedule: Q01DX001 (ip), vehicle: saline) was 0 of 6, the survivor count (dose: 150.0 mg/kg/injection, schedule: Q01DX001 (ip), vehicle: saline) was 0 of 6 and the survivor count (dose: 300.0 mg/kg/injection, schedule: Q01DX001 (ip), vehicle: saline) was 0 of 6.
For O=NN(CCCl)C(=O)Nc1ccc(CCO)cc1, the survivor count (dose: 37.5 mg/kg/injection, schedule: Q01DX009 (ip), vehicle: acetone) was 0 of 6, the survivor count (dose: 75.0 mg/kg/injection, schedule: Q01DX009 (ip), vehicle: acetone) was 0 of 6 and the survivor count (dose: 150.0 mg/kg/injection, schedule: Q01DX009 (ip), vehicle: acetone) was 0 of 6. For the same molecule, the survivor count (dose: 300.0 mg/kg/injection, schedule: Q01DX009 (ip), vehicle: acetone) was 0 of 6 and the survivor count (dose: 600.0 mg/kg/injection, schedule: Q01DX009 (ip), vehicle: acetone) was 0 of 6.
With Cc1cc(NC(=O)Nc2ccc(Cl)cc2C)no1 the survivor count (dose: 100.0 mg/kg/injection, schedule: Q01DX009 (ip), vehicle: Klucel (hydroxypropylcellulose) (HPC)) was 6 of 6, the survivor count [10] was 6 of 6 and the survivor count [11] was 6 of 6.
With O=C(O)CCCCOc1ccccc1 the survivor count (dose: 300.0 mg/kg/injection, schedule: Q04DX003 (ip), vehicle: saline) was 3 of 6.
O=C(O)/C=C/C(=O)NNC(=O)/C=C/C(=O)O was tested, and the survivor count [8] was 4 of 6.
With CNC(C)CC1CCCCC1 (stereo not drawn) the survivor count [12] was 2 of 4, the survivor count [1] was 3 of 6 and the survivor count [13] was 0 of 4. For the same molecule, the survivor count [2] was 0 of 6, the survivor count [7] was 0 of 4 and the survivor count [3] was 0 of 6. For the same molecule, the survivor count [8] was 0 of 4.
In the case of Nc1ncnc2n[nH]nc12, the survivor count [10] is reported as 0 of 6.
With CCC1CCC(NC(=O)N(CCF)N=O)CC1 (stereo not drawn) the T/C (dose: 26.0 mg/kg/injection, schedule: Q01DX001 (ip), vehicle: other) was 129 % of control, the T/C (dose: 40.0 mg/kg/injection, schedule: Q01DX001 (ip), vehicle: other) was 139 % of control and the survivor count (dose: 187.0 mg/kg/injection, schedule: Q01DX001 (ip), vehicle: other) was 3 of 10. For the same molecule, the survivor count (dose: 375.0 mg/kg/injection, schedule: Q01DX001 (ip), vehicle: other) was 0 of 10 and the survivor count (dose: 500.0 mg/kg/injection, schedule: Q01DX001 (ip), vehicle: other) was 0 of 10.
In the case of CCN(CC)CCn1ccnc1C, the survivor count (dose: 400.0 mg/kg/injection, schedule: Q01DX005 (ip), vehicle: saline) is reported as 0 of 4.
In the case of CC(C)CC(NC(=O)c1ccccc1)C(=O)O (stereo not drawn), the survivor count [6] is reported as 6 of 6.
For C=CC[P+](Cc1cccc(OC)c1)(c1ccccc1)c1ccccc1, the survivor count (dose: 50.0 mg/kg/injection, schedule: Q04DX003 (ip), vehicle: saline) was 4 of 6, the survivor count [14] was 2 of 6 and the survivor count [5] was 0 of 6. For the same molecule, the survivor count [4] was 0 of 6.
With O=C(O)c1cc(F)ccc1F the survivor count (dose: 400.0 mg/kg/injection, schedule: Q04DX002 (ip), vehicle: Klucel (hydroxypropylcellulose) (HPC)) was 0 of 3.
In the case of CCN(CC)c1cccc(N)c1, the survivor count (dose: 200.0 mg/kg/injection, schedule: Q04DX003 (sc), vehicle: olive oil, sesame oil, peanut oil) is reported as 1 of 6 and the survivor count (dose: 400.0 mg/kg/injection, schedule: Q04DX003 (sc), vehicle: olive oil, sesame oil, peanut oil) is reported as 1 of 6.
With O=C(C(=O)c1ccc(Cl)cc1)c1ccc(Cl)cc1 the survivor count (dose: 12.5 mg/kg/injection, schedule: Q01DX009 (ip), vehicle: other) was 6 of 6.
With N=C(N(O)C(=O)Nc1ccccc1)C(Cl)(Cl)Cl the survivor count [10] was 3 of 6 and the survivor count [11] was 0 of 6.
With COc1cc(Cc2c3cc4c(cc3cc[n+]2C)OCO4)c(Oc2cc(Cc3c4cc5c(cc4cc[n+]3C)OCO5)ccc2OC)cc1OC the survivor count (dose: 12.5 mg/kg/injection, schedule: Q04DX003 (ip), vehicle: saline with Tween-80) was 1 of 6, the survivor count (dose: 25.0 mg/kg/injection, schedule: Q04DX003 (ip), vehicle: saline with Tween-80) was 2 of 6 and the survivor count [12] was 0 of 6. For the same molecule, the survivor count [14] was 0 of 6, the survivor count [5] was 0 of 6 and the survivor count [4] was 0 of 6.
For CC1CCC2CON(C(C)(C)C)C2C1 (stereo not drawn), the survivor count [13] was 0 of 6, the survivor count [9] was 1 of 6 and the survivor count [8] was 0 of 6.
